Data: PMC12040169 (PLOS Biology, 2025)
Some of the results follow.

tested on: T1, CTL2-GFP (C. trachomatis L2/434/Bu, GFP-expressing); design: species or system HeLa; Intracellular C. trachomatis growth in HeLa cells, bulk GFP fluorescence relative to DMSO; conditions: bulk GFP, single well; 28.5 h, 10 µM; inhibitor
T1 construct: L2/434/Bu, GFP-expressing

Structure (SMILES) | % of control remaining [%]
O=C(OCc1nnsc1Cl)c1ccc(C(=O)c2ccccc2)cc1 [CBK297897] | 101.961
COc1ccc(Br)cc1S(=O)(=O)Nc1nc(C)c(C(=O)O)s1 [CBK045558] | 64.8937
CCC(=O)NCCc1cc2ccc(C)cc2[nH]c1=O [CBK287434] | 147.926
Cc1n[nH]c(C)c1CCC(=O)N/N=C\c1cccc(Oc2ccccc2)c1 [CBK263384] | 101.31
Cc1c(C#N)sc(-c2nc[nH]n2)c1C [CBK005952] | 135.905
CC(C)NC(=O)NC1CCCc2nc(N3CCC(CO)CC3)ncc21 (centres unmarked) [CBK307002] | 129
O=C(Cn1ccc(=O)[nH]c1=O)NCc1ccc(OCC(F)(F)F)cc1 [CBK305041] | 76.2135
COCOc1ccc(-c2nccnc2OCCN2C(=O)c3ccccc3C2=O)cc1 [CBK106913] | 125.416
CC(=O)c1ccc(NC(=O)[C@@]2(CC(=O)O)CC(c3ccc(F)cc3)=NO2)cc1 [CBK286663] | 121.253
CC1(C)CC(=O)C2=C(C1)Nc1[nH][nH]c(=O)c1C2c1ccccn1 (centres unmarked) [CBK288463] | 158.573
COC(=O)c1c(C)[nH]c(C(=O)CSc2ncnc3sc(C)c(-c4ccccc4)c23)c1C [CBK266004] | 130.201
O=C(Cc1ccccc1)N(Cc1ccco1)C1CCN(c2ccc3c(c2)OCCO3)CC1 [CBK286529] | 93.8984
O=C(Cn1nc2n(c1=O)CCCC2)NCc1ccccc1Cl [CBK304647] | 93.8066
CCOC(=O)c1cccc(NS(=O)(=O)c2cc(F)c(Br)cc2F)c1 [CBK034333] | 116.722
O=C(C1CC1)N1C[C@@H](c2ccsc2)[C@@H]2CN(C3CCCC3)CC[C@@H]21 [CBK283382] | 93.6967
O=C(COc1ccccc1)Nc1nn(Cc2ccc(S(=O)(=O)N3CCCC3)cc2)c2ccccc12 [CBK061594] | 162.624
COc1ccc(-c2nnc(SCc3cc(=O)oc4cc(C)ccc34)n2CC(C)C)cc1 [CBK297518] | 142.038
C[C@]12CN(C(=O)C3CCCC3)C[C@H]1NC(=O)c1ccccc1C2=O [CBK281672] | 117.684
C=CCN1C(=O)C2(CC(=O)N(CCCN(C)S(C)(=O)=O)C2=O)c2cc(F)ccc21 (centres unmarked) [CBK075319] | 100
CC1CCCN(C(=O)CC(NC(N)=O)c2cccc(Br)c2)CC1 (centres unmarked) [CBK305804] | 118.238
OCC[C@H]1CN2CCCC2CN1Cc1cccn1-c1ccccc1F (some centres unmarked) [CBK282977] | 137.526
COc1ccccc1CN(Cc1cccnc1)C(=O)NC(C)C(C)C (centres unmarked) [CBK307672] | 141.721
O=C(NC(=S)Nc1ccc2[nH]c(=O)[nH]c2c1)c1ccc(F)cc1 [CBK263986] | 100
O=C(c1ccc(NCCCCO)nc1)N1CCC(N2CCOCC2)CC1 [CBK306521] | 92.0189
COc1ccc(CCC(=O)Nc2cccc(-c3ccc(OC4CCNCC4)cc3)c2)cc1OC [CBK131925T] | 130.014
Cc1ccc(S(=O)(=O)N(CC(=O)Nc2ccccc2C)Cc2ccc(Cl)c(Cl)c2)cc1 [CBK264735] | 100

Structure (SMILES) | % of control remaining [%]
C=CCC1(CC=C)CCN1C(=O)c1cc(-c2c(C)nn(C)c2C)n[nH]1 [CBK282575] | 107.584
Cc1c(-c2ccc(Cl)cc2Cl)nc2ccccc2c1C(=O)NCCC(c1ccccc1)c1ccccc1 [CBK262634] | 117.477
Fc1ccc(-n2nnnc2SCc2ccc(Cl)cc2)cc1Cl [CBK102075] | 85.0266
O=C(Nc1ccccc1Br)C1CCCC1 [CBK092059] | 101.578
CSCCCNC(=O)c1ccc2nc[nH]c2c1 [CBK153314] | 74.373
CCCc1cc(C(=O)Nc2nccs2)cs1 [CBK288212] | 135.273
COCc1cc(-c2ccc(C(=O)N3CCN(C)CC3)nc2)ccc1OCC1CCN(C(=O)OC(C)(C)C)CC1 [CBK174511] | 100.173
CCCc1nn(Cc2ccccn2)c(=O)c2cc3ccsc3n12 [CBK284229] | 128.534
CC(=O)c1ccc(-c2nccnc2N2CCN(c3ccncc3)CC2)s1 [CBK037015] | 189.842
CSc1ccc([C@H]2[C@H](C(=O)O)CC(=O)N2Cc2ccccc2)cc1 [CBK286934] | 126.241
CC[C@H]1C[N@@]2CC[C@H]1C[C@@H]2CNS(=O)(=O)c1cccc2cccnc12 [CBK288747] | 137.345
CC(C)(C)n1cc(C(=O)N2CCNCC2c2cccc(Cl)c2)cn1 (centres unmarked) [CBK304112] | 156.355
CN(C)c1ccc(-c2nccnc2NS(=O)(=O)c2ccc(C(F)(F)F)cc2)cc1 [CBK050802] | 101.159
CC(C)(C)OC(=O)N1CCC(N2CCc3cc(-c4ccc(S(C)(=O)=O)cc4)ccc3C2)CC1 [CBK165796] | 119.814
COc1cc(/C=N/Nc2nonc2N)cc(OC)c1OC [CBK025758] | 78.5477
COc1cc(CN2CCCC3(CCN(C(=O)c4cc(F)c(F)cc4F)C3)C2)cc(OC)c1OC (centres unmarked) [CBK131988] | 99.4233
CN1CCC(N2CCN(C(=O)NCC(c3ccccc3)c3ccccc3)CC2)CC1 [CBK156096] | 103.714
COCOc1ccc(-c2nc(-c3cnc(OC)nc3OC)cnc2N)cc1 [CBK063991] | 169.765
O=S(=O)(Nc1ccccc1OC(F)(F)F)c1ccc(N2CCNCC2)c2ccccc12 [CBK003933C] | 110.727
CN(C)CCCNC(=O)c1cnc2cc(Cl)ccc2c1O [CBK107354] | 100
CC(C)(C)OC(=O)NCCNCc1ccccc1C(F)(F)F [CBK056695] | 131.284
O=C(COc1ccc(C(=O)c2ccc(F)cc2)cc1)c1ccc2c(c1)OCCO2 [CBK297536] | 110.578
CCN(CC)C(=O)CN1C(=O)[C@H]2CCCN2C(=O)c2ccccc21 [CBK286319] | 114.51
CN(CC(=O)Nc1cccnc1N1CCNCC1)C(=O)c1ccccc1 [CBK028264T] | 100
CS(=O)(=O)N1CCCc2cc(-c3csc(N4CCCC4)n3)ccc21 [CBK306093] | 139.174
Cc1noc(C)c1NC(=O)c1cnccc1C(F)(F)F [CBK200306] | 104.42

Structure (SMILES) | % of control remaining [%]
Cc1cc(NC(=O)c2nn(-c3ncccn3)c3ccccc23)n(C)n1 [CBK048505] | 100
CCCS(=O)(=O)Nc1nccnc1N1CCN(c2ccc3c(c2)OCO3)CC1 [CBK048824] | 107.628
COc1cc(C=O)ccc1OC(=O)c1nsc(Cl)c1Cl [CBK266619] | 118.71
N=C(N)NC1=NC(=O)C(CC(=O)Nc2ccc(Oc3ccccc3)cc2)S1 (centres unmarked) [CBK300482] | 141.025
Cc1cccn2c(CN3CC(O)C3)c(C(=O)N3CCOCC3)nc12 [CBK306857] | 131.188
CC(=O)c1ccc(C(=O)N(C)Cc2ccc(F)cc2)s1 [CBK296660] | 126.69
CC(C)(C)Cc1nnc(N)s1 [CBK050161] | 124.139
NS(=O)(=O)c1ccc(C(=O)N2CCC3(CCN(C(=O)c4cc(F)c(F)cc4F)C3)C2)cc1 (centres unmarked) [CBK131385] | 127.678
C#CCNS(=O)(=O)c1cccc(C(=O)NC2CCN(CCOC)CC2)c1 [CBK305714] | 109.675
COC(=O)c1cnn(-c2cc(Oc3ccccc3C)ncn2)c1N [CBK098668] | 94.6446
O=C(NCCN1CCC(O)(c2ccc(F)cc2)CC1)c1ccco1 [CBK283166] | 88.4348
Fc1cccc(SCc2ccccc2)c1 [CBK002912] | 93.4183
O=C1CCCC2=C1C(c1ccccc1Cl)n1nnnc1N2 (centres unmarked) [CBK288151] | 143.572
O=C(O)CCc1ccc(-c2cccs2)n1NC(=O)c1ccc(Cl)cc1 [CBK264738] | 111.489
O=C(Nc1ccccc1)c1ccc2c(c1)C(=O)N(c1cccc(N3C(=O)c4ccc(C(=O)Nc5ccccc5)cc4C3=O)n1)C2=O [CBK261197] | 112.325
O=C1CCC(=O)N1CCOc1nccnc1OC1CCN(Cc2ccc([N+](=O)[O-])cc2)CC1 [CBK084343] | 105.931
O=C(O)c1cccc(N2C(=O)C3C(C2=O)C2(c4ccccc4)C(=O)C3(c3ccccc3)C(c3ccccc3)=C2c2ccccc2)c1 (centres unmarked) [CBK262439] | 130.095
O=C(N1CCC(c2ccncc2)CC1)C1(c2ccccc2)CC1 [CBK285480] | 95.4043
CC(C)N1CCCC(CNC(=O)c2cc(C3CCCCC3)no2)C1 (centres unmarked) [CBK283294] | 123.137
Cc1c(NC(=O)c2cn3c4c(c(N5CCN(C)CC5)c(F)cc4c2=O)OCN3C)c(=O)n(-c2ccccc2)n1C [CBK263061] | 100
CN1CCN(CCCCC2(C)SC(NC3CCCCCC3)=NC2=O)CC1 (centres unmarked) [CBK113259] | 117.787
COc1ccc(S(=O)(=O)N2CCN(C)CC2)cn1 [CBK269511] | 137.27
CC(C)c1noc(NCc2nnc3n2CCCCC3)n1 [CBK306352] | 97.7143
N=C1OC2CSCC2N1C(=O)Cc1ccc(F)cc1 (centres unmarked) [CBK284515] | 102.342
CC(C)(C)OC(=O)N1CCN(c2ccc(C(F)(F)F)c(Cl)n2)CC1 [CBK003030] | 102.365

3 of the compounds above, as tab-separated lines:
Structure (SMILES)	% of control remaining [%]
N=C(N)NC1=NC(=O)C(CC(=O)Nc2ccc(Oc3ccccc3)cc2)S1 (centres unmarked) [CBK300482]	141.025
C#CCNS(=O)(=O)c1cccc(C(=O)NC2CCN(CCOC)CC2)c1 [CBK305714]	109.675
O=C(O)CCc1ccc(-c2cccs2)n1NC(=O)c1ccc(Cl)cc1 [CBK264738]	111.489
